# Measured values taken from article PMC3945201.
# No constants are given. Whether binding was seen depends on the method and setting. Binding seen in cells or lysates may run through a third protein. Some binding calls cover weakened binding; strength is not graded here. Tags and fused reporters may be left off the sequences shown.
# B1: Nob1 (enzyme, UniProt Q08444 1-459)
# chain: MTENQTAHVRALILDATPLITQSYTHYQNYAQSFYTTPTVFQEIKDAQARKNLEIWQSLGTLKLVHPSENSIAKVSTFAKLTGDYSVLSANDLHILALTYELEIKLNNGDWRLRKKPGDALDASKADVGTDGKQKLTEDNKKEEDSESVPKKKNKRRGGKKQKAKREAREAREAENANLELESKAEEHVEEAGSKEQICNDENIKESSDLNEVFEDADDDGDWITPENLTEAIIKDSGEDTTGSLGVEASEEDRHVALNRPENQVALATGDFAVQNVALQMNLNLMNFMSGLKIKRIRNYMLRCHACFKIFPLPKDGKPKHFCASCGGQGTLLRCAVSVDSRTGNVTPHLKSNFQWNNRGNRYSVASPLSKNSQKRYGKKGHVHSKPQENVILREDQKEYEKVIKQEEWTRRHNEKILNNWIGGGSADNYISPFAITGLKQHNVRIGKGRYVNSSKRRS
# Target: T1, Fun12-TAP (TAP-tagged Fun12, the yeast homologue of eIF5B) (S. cerevisiae) (UniProt P39730)
# T1 sequence: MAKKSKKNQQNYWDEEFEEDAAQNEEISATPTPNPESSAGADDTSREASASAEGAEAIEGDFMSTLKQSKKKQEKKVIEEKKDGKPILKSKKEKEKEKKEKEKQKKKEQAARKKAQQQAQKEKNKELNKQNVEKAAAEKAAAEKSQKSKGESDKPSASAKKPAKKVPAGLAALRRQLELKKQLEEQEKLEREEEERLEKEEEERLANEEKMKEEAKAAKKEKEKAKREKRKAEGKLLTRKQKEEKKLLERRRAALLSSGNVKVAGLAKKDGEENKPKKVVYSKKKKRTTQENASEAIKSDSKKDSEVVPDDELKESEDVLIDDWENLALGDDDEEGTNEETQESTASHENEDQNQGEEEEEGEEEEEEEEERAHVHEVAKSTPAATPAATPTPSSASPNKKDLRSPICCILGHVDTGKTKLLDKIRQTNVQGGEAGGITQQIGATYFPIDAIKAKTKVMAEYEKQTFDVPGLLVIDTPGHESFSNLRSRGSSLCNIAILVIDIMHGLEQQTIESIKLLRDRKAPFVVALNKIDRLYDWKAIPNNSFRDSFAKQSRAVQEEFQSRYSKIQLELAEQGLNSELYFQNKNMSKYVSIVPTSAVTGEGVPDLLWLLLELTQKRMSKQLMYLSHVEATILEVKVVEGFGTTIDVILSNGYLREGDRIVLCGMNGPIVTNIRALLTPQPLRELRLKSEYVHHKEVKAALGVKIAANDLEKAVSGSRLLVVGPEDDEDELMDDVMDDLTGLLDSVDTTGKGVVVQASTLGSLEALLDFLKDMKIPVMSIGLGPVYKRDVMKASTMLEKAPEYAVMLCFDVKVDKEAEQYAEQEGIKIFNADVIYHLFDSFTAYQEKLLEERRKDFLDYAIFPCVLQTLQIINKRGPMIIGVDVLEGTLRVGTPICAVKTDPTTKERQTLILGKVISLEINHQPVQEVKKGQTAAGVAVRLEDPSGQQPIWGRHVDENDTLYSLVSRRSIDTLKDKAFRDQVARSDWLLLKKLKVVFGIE
# Test: co-IP; Fun12-TAP precipitated with IgG-Sepharose from total extracts of wild-type and rpl3[W255C] cells grown at 23°C in YPD to mid-log phase; immunoprecipitates analysed by SDS-PAGE and Western blotting with specific antibodies
binder,measurement,value
B1,binding,binds
